Measurements published in PubChem BioAssay AID2417 (National Center for Advancing Translational Sciences (NCATS), 2010).
In all, about 140,000 compounds went through this assay and about 4,300 (3.1%) were called active. The shares of active, inactive and inconclusive entries below differ from those in the screen.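 How the source made its calls: active means readout at or below -70, meaning at least 70% loss of cells showing the perinucleolar compartment, a nuclear body marking cancer cells; inconclusive means readout between -30 and a set limit; inactive means the rest.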

test: High Content Assay for Compounds that inhibit the Assembly of the Perinucleolar Compartment; conditions: PC3M PTB-GFP, PNC prevalence imaging, 16 h; at 10 µM; hits give low values;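 further: plate controls were DMSO wells for no effect and camptothecin positive control wells for full effect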
Summary of the method: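 PC3M cells stably expressing PTB-GFP, 750–1000 cells/well, treated 16 h at 37 °C with compound (23 nl of library stock), in duplicate. After paraformaldehyde fixation and Hoechst stain, imaged at 20x; PNC prevalence scored by image analysis.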

Row | Compound | activity change (PNC), negative = inhibition
1 | N#CC1=C(N)Oc2c(sc3ccccc23)C1c1ccco1 (configuration not stated) | active: -91.1%
2 | CC(=O)N1CCc2cc(Br)cc(S(=O)(=O)NCCCN3CCCC(C)C3)c21 (configuration not stated) | inconclusive: -45.7%
3 | FC(F)(F)c1nc(-c2cccnc2)ncc1-c1nnnn1-c1ccccc1 | inactive: -25.8%
4 | CCOc1ccc(/C=N/Nc2cc(=O)n(C)c(=O)n2C)cc1 | inconclusive: -46.6%
5 | Cc1nn(CC(=O)Nc2ccc(Cl)cn2)c(C)c1Br | inconclusive: -59%
6 | CCOC(=O)c1c(C)[nH]c(C=Nc2ccccc2)c1O | inconclusive: -46.8%
7 | COc1ccccc1-c1cc(C(F)(F)F)nc(S(=O)(=O)CCCC(=O)Nc2cc(C)on2)n1 | inactive: -10.1%
8 | CCN(CCCNC(=O)CCn1c(=O)[nH]c2ccccc2c1=O)c1cccc(C)c1 | inconclusive: -71.4%
9 | CN(C)C(=O)N1CCCC(C(=O)NCc2ccccc2)C1 (configuration not stated) | active: -90.9%
10 | CC(C)CNC(=O)COc1ccccc1[N+](=O)[O-] | inactive: -8.64%
11 | COc1ccc(/C=N/NC(=O)CN2CCSCC2)cc1C | inactive: 40.8%
12 | COc1ccc(C(=O)NC(C)c2cc(OC)c(OC)cc2Br)cc1 (configuration not stated) | inconclusive: -38.5%
13 | O=C(O)c1ccc(NCc2ccc3c(c2)OCO3)cc1 | inconclusive: -34.5%
14 | O=C(CSc1nc2ccccc2[nH]1)c1ccc(Cl)s1 | inconclusive: -35.2%
15 | O=c1oc2ccccc2cc1-c1nc2c(s1)CCCC2 | inactive: -17.4%
16 | Cc1[nH]c2ccccc2c1C(=O)CSc1ncn[nH]1 | inconclusive: -34.9%
17 | CCN1CCCC1CNc1ncnc2c1[nH]c1ccc(Cl)cc12 (configuration not stated) | inconclusive: -44.5%
18 | O=C(Nc1ccc(NC(=O)C2CCCN2C(=O)OCc2ccccc2)cc1)c1ccco1 (configuration not stated) | inconclusive: -50.7%
19 | Cc1nn(C)cc1NC(=O)CCSc1nc(-c2ccco2)cc(C(F)(F)F)n1 | inconclusive: -77.6%

Rewritten in markdown: entries from further up

| Row | Compound | activity change (PNC), negative = inhibition |
| --- | --- | --- |
| 10 | CC(C)CNC(=O)COc1ccccc1[N+](=O)[O-] | inactive: -8.64% |
| 15 | O=c1oc2ccccc2cc1-c1nc2c(s1)CCCC2 | inactive: -17.4% |
| 16 | Cc1[nH]c2ccccc2c1C(=O)CSc1ncn[nH]1 | inconclusive: -34.9% |

Next records:

Row | Compound | activity change (PNC), negative = inhibition
20 | Cc1noc(C)c1S(=O)(=O)N1CCN(c2ccccc2)CC1 | inconclusive: -43.8%
21 | CCN(CC)S(=O)(=O)c1cc(NC(=O)CN2C(=O)NC3(CCCc4ccccc43)C2=O)ccc1C (configuration not stated) | inactive: 49.1%
22 | O=C(Nc1ccccc1)N(CCCN1CCOCC1)Cc1ccccc1F | active: -109%
23 | CCc1ccc(N2CC(C(=O)N/N=C/c3cccc([N+](=O)[O-])c3)CC2=O)cc1 (configuration not stated) | inactive: 38.9%
24 | Cn1cnc([N+](=O)[O-])c1Oc1ccc2ccccc2c1 | inconclusive: -34.6%
25 | Cc1nonc1NC(=O)CSc1nnc(-c2ccoc2C)n1-c1cccc(Cl)c1 | inconclusive: -59.2%
26 | CC1(C)CC(=O)C(Sc2ccccc2[N+](=O)[O-])=C(O)C1 | active: -83.2%
27 | CCN(c1ccc(OCC(=O)OCC(=O)Nc2ccc(F)c(F)c2F)cc1)S(=O)(=O)c1ccccc1 | inactive: -21.7%
28 | COc1ccc(S(=O)(=O)N(CC(=O)O)Cc2ccccc2)cc1OC | inconclusive: -32.1%
29 | COc1cc(-c2noc(-c3ccccc3C(=O)NCc3ccco3)n2)cc(OC)c1OC | inconclusive: -31%
30 | CCN(CC)C(=O)c1sc(NC(=O)C(Sc2ccccc2)c2ccccc2)c(C(=O)OC(C)C)c1C (configuration not stated) | inactive: 11.4%
31 | CCCCC(CC)CNC(=O)CCS(=O)(=O)c1cccc2nonc12 (configuration not stated) | inconclusive: -60.7%
32 | O=C(CSc1ccc2nnc(-c3ccc(Cl)cc3)n2n1)N1CCCc2ccccc21 | inconclusive: -51.1%
33 | COCCn1c(-c2cccc([N+](=O)[O-])c2)nc2c1c(=O)[nH]c(=O)n2Cc1ccccc1 | inactive: 38.1%
34 | O=C(O)CCCCCNc1nc2ncn(Cc3ccccc3)c2c(=O)[nH]1 | inconclusive: -40.7%
35 | COc1cccc2c1C(=O)c1c(O)c3c(c(O)c1C2=O)C[C@@](O)(C(C)=O)C[C@@H]3O[C@H]1C[C@H](N)[C@H](O)[C@H](C)O1 | active: -115%
36 | CCSc1nnc(NC(=O)c2cc3c(s2)CCCC3)s1 | inconclusive: -49.6%
37 | Brc1cnc(N2CCCC2)nc1N1CCCCC1 | inconclusive: -64.9%
38 | C=CCNC(=O)CSc1nc2cc(C(=O)OCC)ccc2n1CC | inconclusive: -50.9%

Row | Compound | activity change (PNC), negative = inhibition
39 | COc1cc(C=C(C(C)=O)C(C)=O)ccc1O | inactive: 28.8%
40 | CSc1sc(C)cc1C1C(C#N)=C(N)N(c2cccnc2)C2=C1C(=O)CC(C)(C)C2 (configuration not stated) | inconclusive: -58.3%
41 | O=c1[nH]c(C2C3CC4CC(C3)CC2C4)nc2ccccc12 (configuration not stated) | inconclusive: -31.3%
42 | O=S(=O)(c1ccccc1)c1nc(-c2ccco2)oc1NCc1cccnc1 | inactive: 18.4%
43 | CCOc1ccc(-c2cnc(SCC(N)=O)nc2N)cc1 | inconclusive: -65.7%
44 | O=C(c1cccs1)N1CCC(c2ccccc2)C1 (configuration not stated) | inactive: 46.9%
45 | CC(C)CC(COCc1ccc(Cl)cc1)N1CCN(C(=O)c2cccc(C(F)(F)F)c2)CCC1=O (configuration not stated) | inconclusive: -66.1%
46 | O=C(NCc1cccs1)C1CCN(c2ccc(S(=O)(=O)N3CCOCC3)cc2Cl)CC1 | active: -124%
47 | CCN(CC)S(=O)(=O)c1ccc(N2CCOCC2)c(NC(=O)Cc2ccc(Cl)cc2)c1 | inactive: 18%
48 | Cc1ccc(CONC(=O)/N=C/N(C)C)cc1 | inactive: 19.7%
49 | CC(NS(=O)(=O)c1ccccc1)C1COc2ccccc2O1 (configuration not stated) | inconclusive: -36.9%
50 | O=C(NCc1ccco1)c1nn2c(C(F)(F)F)cc(-c3cccs3)nc2c1Br | inactive: -20.7%
51 | O=C(Oc1cccc(-n2cnnn2)c1)c1sc2ccccc2c1Cl | inconclusive: -67.3%
52 | CC(C)N1CC(C(=O)O)CC1=O (configuration not stated) | inconclusive: -49.2%
53 | Cn1c(SCC(=O)Nc2ccccc2F)nnc1-c1ccc(S(=O)(=O)N2CCOCC2)cc1 | inconclusive: -40.7%
54 | CC(Nc1nc2ncn(Cc3ccccc3)c2c(=O)[nH]1)C(=O)O (configuration not stated) | inconclusive: -42.8%
55 | CCOC(=O)c1sc2ncnc(N3CCN(c4ccc(OC)cc4)CC3)c2c1C | inconclusive: -31.2%
56 | CCOC(=O)C1CCN(Cc2c(F)cccc2Cl)CC1 | inconclusive: -52%
57 | O=C(COC(=O)CC(c1ccccc1)c1ccccc1)Nc1c(F)cccc1F | inconclusive: -35.7%
